PubChem BioAssay AID1259405 – NCATS – 2018
In all, the deposit lists about 50,000 reagents; this is an unselected part. Over the whole deposit, about 4,000 (8%) got an active call. 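Mouse siRNA library applied to hamster cells; one well for each siRNA.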 The numbers tell different reagents against one gene apart.

Aim: 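Silenced genes that increase secreted GFP made by CHO cells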 (primary screen)
Cell system: Chinese hamster CHO-K1 ovary cells with stable secreted eGFP expression
Reagent: single siRNA against mouse genes, 0.8 pmol siRNA per well (2 µl of 400 nM stock)
Duration: 3 days
Read-out: 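Percent of the per-plate non-targeting control median for intracellular GFP per well by laser scanning cytometry and for cell viability by ATP luminescence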
Scale: GFP, % of control: higher = more GFP per well, higher productivity; viability (ATP), % of control: higher = more viable cells (more ATP)
Hit rule: 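a knock-down is called active if GFP reaches 120% or more of non-targeting control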

gene	reagent	GFP, % of control	viability (ATP), % of control	Call
Herc3 (hect domain and RLD 3)	1	102	65.4	inactive
Herc3 (hect domain and RLD 3)	2	74.9	79.1	inactive
Herc3 (hect domain and RLD 3)	3	38.8	42.7	inactive
Hspb8 (heat shock protein family B (small) member 8)	1	166	92.7	active
Hspb8 (heat shock protein family B (small) member 8)	2	129	77.2	active
Hspb8 (heat shock protein family B (small) member 8)	3	100	114	inactive
Hoxd4 (homeobox D4)	1	50.4	57.8	inactive
Hoxd4 (homeobox D4)	2	75.1	73.4	inactive
Hoxd4 (homeobox D4)	3	82.4	82.1	inactive
Chuk (conserved helix-loop-helix ubiquitous kinase)	1	55.7	52.7	inactive
Scgb2b26 (secretoglobin, family 2B, member 26)	1	87	74.3	inactive
Scgb2b26 (secretoglobin, family 2B, member 26)	2	60.6	66.9	inactive
Scgb2b26 (secretoglobin, family 2B, member 26)	3	80.4	93.5	inactive

Next part, starting with the last 5 of the part before.
gene	reagent	GFP, % of control	viability (ATP), % of control	Call
Hoxd4 (homeobox D4)	3	82.4	82.1	inactive
Chuk (conserved helix-loop-helix ubiquitous kinase)	1	55.7	52.7	inactive
Scgb2b26 (secretoglobin, family 2B, member 26)	1	87	74.3	inactive
Scgb2b26 (secretoglobin, family 2B, member 26)	2	60.6	66.9	inactive
Scgb2b26 (secretoglobin, family 2B, member 26)	3	80.4	93.5	inactive
Il11 (interleukin 11)	1	119	85	inactive
Il11 (interleukin 11)	2	37.3	38.8	inactive
Il11 (interleukin 11)	3	89	79.4	inactive
Zkscan14 (zinc finger with KRAB and SCAN domains 14)	1	73.2	65.9	inactive
Zkscan14 (zinc finger with KRAB and SCAN domains 14)	2	80.4	102	inactive
Xlr4b (X-linked lymphocyte-regulated 4B)	1	51	36.1	inactive
Xlr4b (X-linked lymphocyte-regulated 4B)	2	81.8	66.6	inactive
Xlr4b (X-linked lymphocyte-regulated 4B)	3	50	84.7	inactive
Phxr2 (per-hexamer repeat gene 2)	1	48.1	52.1	inactive
Phxr2 (per-hexamer repeat gene 2)	2	107	73.5	inactive
Phxr2 (per-hexamer repeat gene 2)	3	107	127	inactive
Lce1c (late cornified envelope 1C)	1	87.7	96.6	inactive
Lce1c (late cornified envelope 1C)	2	94.2	91.8	inactive
Lce1c (late cornified envelope 1C)	3	109	80.6	inactive
Commd1 (COMM domain containing 1)	1	80.8	102	inactive
Commd1 (COMM domain containing 1)	2	54.5	79.4	inactive
Commd1 (COMM domain containing 1)	3	96	108	inactive
Tmed1 (transmembrane p24 trafficking protein 1)	1	58.4	55.9	inactive
Tmed1 (transmembrane p24 trafficking protein 1)	2	46.8	30.9	inactive
Tmed1 (transmembrane p24 trafficking protein 1)	3	95.6	47.6	inactive
Mrpl46 (mitochondrial ribosomal protein L46)	1	87.8	71.8	inactive
Mrpl46 (mitochondrial ribosomal protein L46)	2	76.1	66.7	inactive
Mrpl46 (mitochondrial ribosomal protein L46)	3	90.7	55.7	inactive
